Results from the supplement of paper PMC8551327.
Several values for one entry are separate records, joined by “and”; a condition that tells them apart may be missing. Equal values may be shown once. Where a name gives a salt, the structure may show the parent alone. The list shows a part of the results. Rule as the data show it: active = 1.25 or more and inactive = the rest. Many values rest on one well or one pass, so single values are uncertain.

test system: Kcc2-LUC knock-in mouse primary cortical neurons (Kcc2 promoter reporter); assay: Kcc2 promoter-driven luciferase activity relative to vehicle control (fold of vehicle (ratio)); higher = stronger Kcc2 promoter activation (Kcc2 expression enhancer); conditions: 100 nM; 48 h

Kcc2 promoter-driven luciferase activity, inactive:
Cc1cc(Cl)cc2c1NC(=O)C2(O)C(C(=O)c1ccccc1)c1ccccc1 (stereo not drawn) 0.8
C=C(Cl)[C@](Cl)(CBr)CC[C@@H](Br)C(C)(C)Cl (racemic) [Halomon (racemic)] 0.94
CN1C(c2ccccc2)CC(=NO)CC1c1ccccc1 (stereo not drawn) 0.82
CCNC(=O)OCc1c(COC(=O)NCC)c(-c2ccc(Cl)c(Cl)c2)n2c1CCC2 0.912
C[C@]12C=CC(=O)C=C1[C@@H](F)C[C@H]1[C@@H]3CC[C@](O)(C(=O)CO)[C@@]3(C)C[C@H](O)[C@@]12F [6-alpha-Fluoro-isoflupredone] 0.96
COC1OC(COCc2ccc(Cl)cc2)C(OCc2ccc(Cl)cc2)C1O (stereo not drawn) [Methyl 3,5-bis-O-(4-chlorobenzyl)pentofuranoside] 1.1
O=C(c1ccccc1)C1OC12C(=O)Nc1c(Cl)cc(Cl)cc12 (stereo not drawn) 0.72
CC(=O)OC1CC(n2cc(F)c(=O)[nH]c2=O)OC1CO (stereo not drawn) 1.02
Cc1c2ccc3ccccc3c2c[n+]2ccccc12 [7-methylnaphtho[2,1-b]quinolizin-12-ium;chloride] 0.5
C/C=C/c1cc2c(c(=O)o1)C(=O)[C@@H](O)[C@H](C)O2 [Radicinin] 0.4
O=S(=O)(O)c1cc(N=Nc2cc(S(=O)(=O)O)c3ccccc3c2O)ccc1/C=C/c1ccc(N=Nc2cc(S(=O)(=O)O)c3ccccc3c2O)cc1S(=O)(=O)O 1.01
COc1cccc2c1C(=O)c1c(O)c3c(c(O)c1C2=O)C[C@@](O)(C(C)=O)C[C@@H]3O[C@@H]1C[C@@H](N(C)C)[C@@H](O)[C@@H](C)O1 [N,N-Dimethyldaunomycin hydrochloride] 0.01
CCOC(=O)c1sc2[n+](c1C)C(=O)/C(=C/c1ccc([N+](=O)[O-])cc1)S2 0.85
COC(=O)C1=CC(=O)C(C(=O)Nc2ccc(OC)cc2)C(c2ccccc2)O1 (stereo not drawn) 0.98
CC(C)c1ccc(O)c(=O)cc1 [gamma-thujaplicin] 1.14
S=C(Nc1ccccc1)N(/N=C/C=C/c1ccccc1)c1nnc(-c2ccccc2)c(-c2ccccc2)n1 0.78
C=CC(=O)N1C/C(=C\c2ccccc2)C(=O)/C(=C/c2ccccc2)C1 [(3E,5E)-3,5-dibenzylidene-1-prop-2-enoylpiperidin-4-one] 1.17
Cc1ccc(CC2(OCCN(C)C)CCC(C(C)(C)C)CC2)cc1 (stereo not drawn) 0.723 and 0.958
CCCCOCc1cc(CN2CCN(C)CC2)c(O)c2ncccc12 0.92
Cc1cc(N(C)C)ccc1N=Nc1ccc2ncccc2c1 [N,N,3-Trimethyl-4-(quinolin-6-yldiazenyl)aniline] 0.92
CC(C)C(=O)OCN(C)c1nc(N(C)COC(=O)C(C)C)nc(N(C)COC(=O)C(C)C)n1 [N2,N6-Triisobutyryloxymthyl-N2,N4,N6-trimethylmelamine] 0.87
C[C@@H]1O[C@@H](CC(=O)O)CC2=C1C(=O)c1c(O)cccc1C2=O [Nanafrocin] 0.925
CN(C)c1ccc(/C=C/C(=O)[O-])cc1.CN(C)c1ccc(/C=C/C(=O)[O-])cc1.[Cu+2] [p-Dimethylaminocinnamic acid, copper complex] 1.04
Cc1cc2cc3cc(C)c(N)cc3nc2cc1N [Acridine Yellow G] 0.48
CO[C@@H]1[C@@H](O[C@@H]2O[C@H](C)[C@@H](O[C@H]3C[C@@](C)(O)[C@@H](OC(=O)CC(C)C)[C@H](C)O3)[C@H](N(C)C)[C@H]2O)[C@@H](CC=O)C[C@@H](C)C(=O)/C=C/[C@@H]2O[C@@H]2C[C@@H](C)OC(=O)C[C@H]1OC(C)=O [Carbomycin] 0.83
CN(C)[C@H]1CCC2[C@@H]3CCC4C[C@@H](NC(=O)NC(Cc5ccccc5)c5nccs5)CC[C@]4(C)C3CC[C@@]21C (stereo partly drawn) 0.66

Reprinted at random: two records from the list, in no set order.
Kcc2 promoter-driven luciferase activity, inactive:
Cc1c2ccc3ccccc3c2c[n+]2ccccc12 [7-methylnaphtho[2,1-b]quinolizin-12-ium;chloride] 0.5
O=C(c1ccccc1)C1OC12C(=O)Nc1c(Cl)cc(Cl)cc12 (stereo not drawn) 0.72

Next part:

Kcc2 promoter-driven luciferase activity, active:
CC(=O)N1CCN(c2ccc(OCC3COC(Cn4ccnc4)(c4ccc(Cl)cc4Cl)O3)cc2)CC1 (stereo not drawn) [Ketoconazole] 1.26
Cc1cc(-c2nc3ccccc3s2)ccc1N [4-(1,3-Benzothiazol-2-yl)-2-methylaniline] 6.44
